Reference: article PMC4317013 (The Journal of Biological Chemistry, 2014)

System: U937 cells
Test: Interaction of PCI with cellular testisin on U937 cells
Assay type: cell-based
Settings: 20 nM rmPCI

B1: rmPCI: recombinant mouse protein C inhibitor with N-terminal His tag (protein, UniProt P70458 25-405, looked up)
Plasma serine protease …: SKKKKAKESSVGAVGPPSSKDFAFRLYRALVSESPGQNVFFSPLSVSMSLGMLSLGAGLKTKTQILDGLGLSLQQGQEDKLHKGFQQLLQRFRQPSDGLQLSLGSALFKDPAVHIRDDFLSAMKTLYMSDTFSTNFGNPEIAKKQINNYVAKQTKGKIVDFIKDLDSTHVMIVVNYIFFKAKWQTAFSETNTHKMDFHVTPKRTTQVPMMNREDGYSYYLDQNISCTVVGIPYQGNAIALFILPSEGKMKQVEDGLDERTLRNWLKMFTKRRLDLYLPKFSIEATYKLENVLPKLGIQDVFTTHADLSGITDHTNIKLSEMVHKSMMEVEESGTTAAAITGAIFTFRSARPSSLKIEFTRPFLLTLMEDSHILFVGKVTRP
modifications: N-terminal His tag
cleavage by media from PI-PLC-pretreated U937 cells (1 and 4 h, 37 °C, Fig. 2D): partial degradation | cleavage by PI-PLC-pretreated U937 cells or media from untreated cells (1 and 4 h, 37 °C, cells pretreated with 2 units/ml PI-PLC for 30 min, Fig. 2D): did not affect the molecular weight | detection with anti-penta-His IgG after incubation with U937 cells (U937 cells 1 × 10^7 cells/ml, 4 h, Fig. 2B right panel): cannot be detected | cleavage by U937 cells (U937 cells 1 × 10^7 cells/ml, RMPI 1640 medium, 4 h, 37 °C, anti-mPCI IgG, Fig. 2B): is cleaved
